Chains of the proteins cited; added tags and fusions are not shown.
UniProt O61735: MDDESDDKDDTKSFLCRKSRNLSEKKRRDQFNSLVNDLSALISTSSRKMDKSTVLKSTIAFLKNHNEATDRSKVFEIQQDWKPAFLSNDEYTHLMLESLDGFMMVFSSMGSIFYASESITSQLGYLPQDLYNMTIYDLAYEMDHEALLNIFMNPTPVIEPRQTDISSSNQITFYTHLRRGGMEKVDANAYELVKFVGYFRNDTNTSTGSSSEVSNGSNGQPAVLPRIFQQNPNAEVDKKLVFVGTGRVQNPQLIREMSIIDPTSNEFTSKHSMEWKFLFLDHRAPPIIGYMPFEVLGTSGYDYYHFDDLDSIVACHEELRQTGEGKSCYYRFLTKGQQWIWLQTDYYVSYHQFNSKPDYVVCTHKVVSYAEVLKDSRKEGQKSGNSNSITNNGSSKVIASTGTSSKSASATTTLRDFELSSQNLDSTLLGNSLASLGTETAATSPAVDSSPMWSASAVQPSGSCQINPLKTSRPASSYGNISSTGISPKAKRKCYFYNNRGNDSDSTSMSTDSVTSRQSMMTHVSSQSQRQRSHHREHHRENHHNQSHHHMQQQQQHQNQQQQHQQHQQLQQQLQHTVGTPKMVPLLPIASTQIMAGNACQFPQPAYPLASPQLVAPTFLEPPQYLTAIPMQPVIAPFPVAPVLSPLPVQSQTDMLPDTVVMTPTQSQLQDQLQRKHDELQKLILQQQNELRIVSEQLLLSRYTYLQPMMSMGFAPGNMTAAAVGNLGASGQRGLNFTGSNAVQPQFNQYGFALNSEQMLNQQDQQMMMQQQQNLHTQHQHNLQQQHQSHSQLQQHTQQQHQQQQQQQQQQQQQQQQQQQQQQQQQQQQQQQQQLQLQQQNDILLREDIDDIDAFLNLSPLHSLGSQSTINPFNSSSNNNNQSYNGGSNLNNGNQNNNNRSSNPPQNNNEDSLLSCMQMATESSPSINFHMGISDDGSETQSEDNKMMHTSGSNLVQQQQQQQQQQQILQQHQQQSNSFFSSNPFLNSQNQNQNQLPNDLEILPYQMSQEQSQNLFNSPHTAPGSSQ
UniProt P25439: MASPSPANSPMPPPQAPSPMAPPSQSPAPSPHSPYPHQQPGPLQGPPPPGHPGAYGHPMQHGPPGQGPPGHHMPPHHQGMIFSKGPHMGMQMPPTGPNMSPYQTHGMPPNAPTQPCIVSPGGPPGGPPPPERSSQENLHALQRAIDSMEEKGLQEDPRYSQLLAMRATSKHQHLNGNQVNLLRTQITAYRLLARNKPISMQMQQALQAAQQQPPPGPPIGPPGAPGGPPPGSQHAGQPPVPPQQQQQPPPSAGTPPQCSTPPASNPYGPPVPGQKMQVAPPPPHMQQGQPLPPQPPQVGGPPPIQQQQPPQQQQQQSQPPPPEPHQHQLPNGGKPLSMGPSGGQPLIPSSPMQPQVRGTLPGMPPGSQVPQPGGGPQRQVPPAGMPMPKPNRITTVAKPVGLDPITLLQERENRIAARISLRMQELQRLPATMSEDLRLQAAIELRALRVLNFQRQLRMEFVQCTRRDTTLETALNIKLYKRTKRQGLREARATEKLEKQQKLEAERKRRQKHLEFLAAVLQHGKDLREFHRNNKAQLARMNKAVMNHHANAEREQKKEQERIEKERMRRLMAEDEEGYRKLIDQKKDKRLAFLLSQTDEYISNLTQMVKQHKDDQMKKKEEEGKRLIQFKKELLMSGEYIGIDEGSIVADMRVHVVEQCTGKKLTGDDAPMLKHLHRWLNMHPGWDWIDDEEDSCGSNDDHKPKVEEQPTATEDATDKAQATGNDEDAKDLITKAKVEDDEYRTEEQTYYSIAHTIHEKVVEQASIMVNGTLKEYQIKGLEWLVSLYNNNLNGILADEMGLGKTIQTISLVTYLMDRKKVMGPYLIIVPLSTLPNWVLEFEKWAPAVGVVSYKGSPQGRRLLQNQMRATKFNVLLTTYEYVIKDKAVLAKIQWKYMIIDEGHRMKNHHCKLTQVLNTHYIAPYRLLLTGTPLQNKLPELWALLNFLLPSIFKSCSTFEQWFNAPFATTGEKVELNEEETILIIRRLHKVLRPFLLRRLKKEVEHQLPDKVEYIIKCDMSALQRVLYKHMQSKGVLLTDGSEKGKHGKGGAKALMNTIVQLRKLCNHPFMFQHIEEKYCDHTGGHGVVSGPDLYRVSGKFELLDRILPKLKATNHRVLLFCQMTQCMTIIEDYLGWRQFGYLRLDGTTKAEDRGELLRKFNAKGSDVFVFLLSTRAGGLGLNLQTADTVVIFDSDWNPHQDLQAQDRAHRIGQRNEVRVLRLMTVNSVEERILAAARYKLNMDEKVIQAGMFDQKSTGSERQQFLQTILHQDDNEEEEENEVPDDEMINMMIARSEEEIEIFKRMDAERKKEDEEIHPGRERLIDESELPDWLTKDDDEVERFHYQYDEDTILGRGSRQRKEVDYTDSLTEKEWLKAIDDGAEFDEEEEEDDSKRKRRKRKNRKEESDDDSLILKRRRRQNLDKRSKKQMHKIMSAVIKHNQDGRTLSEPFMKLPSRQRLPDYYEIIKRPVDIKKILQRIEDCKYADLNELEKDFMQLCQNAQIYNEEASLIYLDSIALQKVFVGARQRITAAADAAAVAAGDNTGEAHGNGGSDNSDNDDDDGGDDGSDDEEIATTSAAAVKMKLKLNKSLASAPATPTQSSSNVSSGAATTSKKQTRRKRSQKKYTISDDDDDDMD

In paper PMC4488936:

Biological target: recombinant CLK modified with epitope tags (bait of the proteomic screen) (Drosophila melanogaster) (UniProt O61735)
Assay: affinity purification with mass spectrometry; epitope-tagged CLK purified from cytoplasmic and nuclear extracts of S2 cells; label-free quantitative MS/MS; Brahma subunits found specifically in nuclear extracts

binding: binds
Substance: BRM, endogenous in S2 cells (from UniProt P25439 1-1638)

Results are given in words; binding and its absence hold for the method and conditions named. Binding seen in cells or lysates may run through a third protein. These calls come from enrichment with a bait or labelling near it, and not all partners need be listed.
